# Assay results reported in PubChem BioAssay AID758 (NMMLSC, 2007).
# The whole screen tested about 190,000 compounds, of which about 110 (0.058%) were called active. Inconclusive results, whose numbers are uncertain, are shown with a selection of clear calls.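 How the source made its calls: active means fluorescent GTP binding to Rab7 beads changed by at least 20 points from the 100% baseline, either direction, mostly lower; inconclusive means compound itself probably fluorescent, or too few beads counted; inactive means the rest.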
# System: Rab7 GTPase wild type (dog), Bodipy-FL-GTP binding
# Test: modulators of GTP binding to Rab7, primary screen, biochemical, wildtype, multiplex bead flow cytometry (AID 758);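 further: median green fluorescence of bound Bodipy-FL-GTP per Rab7 bead population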
# Conditions: GST-Rab7 beads, fluorescent GTP binding, at 10 µM, actives lie on both sides, untreated = 100%, excess cold GTP = 0%
row,Structure (SMILES),GTP binding activity (percent of control)
1,COc1ccc(C(=O)N[C@H](C(=O)OCc2cc(=O)oc3cc(C)ccc23)C(C)C)cc1,active: 20%
2,COc1cccc(=O)c2c(C)n(-c3cc(C)cc(C)c3)c(C)c12,inconclusive: 106%
3,CC(=O)N1CC(=O)N(Cc2ccccc2)/C(=C/c2ccccc2)C1=O,inactive: 94%
4,CCN(CC)S(=O)(=O)c1ccc(C(=O)Nc2nnc(C(C)C)s2)cc1,inconclusive: 102%
5,CCCC(=O)N(c1ccc(OC)cc1)C1C=CS(=O)(=O)C1 (configuration not stated),inconclusive: 106%
6,COC(=O)C1CCCN1C(=O)COc1ccc(Cl)cc1Br (configuration not stated),inactive: 98%
7,O=C(COC(=O)/C=C/c1cccc(Cl)c1)NCCC1=CCCCC1,inconclusive: 92%
8,N#Cc1cc2ccc(N3CCOCC3)cc2cc1C#N,inconclusive: 104%
9,Cn1c(NC(=O)Cc2cccc3ccccc23)cc(=O)n(C)c1=O,inconclusive: 90%
10,Cn1c(SCC(=O)Nc2cc(C(C)(C)C)nn2-c2ccccc2)nc2ccccc21,inconclusive: 147%
11,COCCNC(=O)c1cnn2c(C(F)F)cc(-c3ccccc3)nc12,inactive: 98%
12,COc1ccc(Br)cc1/C=N/NC(=O)c1cccc(S(=O)(=O)N2CCOCC2)c1,inconclusive: 93%
13,COc1cc(C(=O)Nc2nc(-c3cccs3)cs2)cc(OC)c1OC,inconclusive: 96%
14,Cc1nc2c(-c3ccc(Cl)cc3)c(C)[nH]n2c(=O)c1Cc1ccccc1,inconclusive: 88%
15,O=C(CNC(=O)c1cccs1)OCC(=O)c1ccc(Br)cc1,inconclusive: 97%
16,COc1ccc(N=C2SC(C(=O)Nc3ccc(OC)cc3)CC(=O)N2CCN2CCOCC2)cc1 (configuration not stated),inconclusive: 97%
17,C=CCN(Cc1cc(OC)ccc1OC)S(=O)(=O)N(C)C,inconclusive: 103%
18,CCCC1Cc2c(sc3ncnc(N)c23)CO1 (configuration not stated),inconclusive: 90%
19,OCCC1CN(CC(c2ccccc2)c2ccccc2)CCN1C1CCCC1 (configuration not stated),inactive: 99%
20,O=C(CN1C(=O)NC2(CCOc3ccccc32)C1=O)Nc1cccc(Cl)c1 (configuration not stated),inactive: 103%
21,O=C(O)c1ccc(/C=C/c2nc3sc4c(c3c(=O)[nH]2)CCC4)cc1,inconclusive: 93%
22,COc1ccc2nc(NC(=O)c3ccc(NS(=O)(=O)c4cccs4)cc3)sc2c1,inconclusive: 94%
23,COc1ccc(Cl)cc1NC(=S)N(Cc1cccnc1)Cc1ccco1,inconclusive: 95%

row,Structure (SMILES),GTP binding activity (percent of control)
1,COc1nnc(-c2ccccc2)s1,inconclusive: 99%
2,O=C(C[n+]1cccc(CNC(=O)c2ccc(OC(F)F)cc2)c1)Nc1ccccc1Cl,inconclusive: 211%
3,O=C(O/N=C(/c1ccccc1)c1ccncc1)c1ccccc1[N+](=O)[O-],inactive: 95%
4,COCCCNC(=O)c1ccc2c(c1)CCN2S(C)(=O)=O,inconclusive: 92%
5,O=C(CCCN1C(=O)/C(=C/c2cccs2)SC1=S)NNC(=O)c1ccccc1O,inconclusive: 92%
6,COC(=O)/C=C1\NCCSC1=O,inconclusive: 109%
7,CC(C)Oc1cccc(C(=O)NC(=S)NCc2cccnc2)c1,inactive: 99%
8,Cn1nnnc1SCC(=O)Nc1cc(C(C)(C)C)nn1-c1ccccc1,inconclusive: 96%
9,Cc1cc(NC(=O)Cn2c(=O)c3c(ncn3CCC(C)C)n(Cc3ccccc3)c2=O)no1,inconclusive: 108%
10,CNC(=O)CSc1nc2c([nH]c3ccccc32)c(=O)n1CCOC,inconclusive: 108%
11,CC1N(C)c2cc(NC(=O)c3cccs3)c(P(=O)(Nc3ccc([N+](=O)[O-])cc3)N3CCOCC3)cc2C1(C)C (configuration not stated),inactive: 106%
12,COC(=O)c1c(C)nc(C)c(C(=O)OC)c1-c1cccs1,inconclusive: 135%
13,NC(=O)c1oc2ccccc2c1NC(=O)c1ccc(F)cc1,inconclusive: 98%
14,COc1ccc(Nc2cc(C(=O)NCCCN3CCN(C)CC3)c3ccccc3n2)cc1OC,inconclusive: 133%
15,CCc1cc2ccc(C)cc2nc1SCC(=O)Nc1cc(OC)c(OC)cc1C(=O)O,inconclusive: 102%
16,Cc1cccc(Nc2nc(NCc3ccco3)nc(N3CCOCC3)n2)c1,inactive: 101%
17,CC1(C)C2CCC1(CS(=O)(=O)Nc1ccccc1)C(=O)C2 (configuration not stated),inactive: 100%
18,COC(=O)c1ccc(COc2ccc(/C=C(\C#N)c3nc4ccccc4[nH]3)cc2OC)o1,inactive: 99%
19,COc1cccc2sc(Nc3nc(-c4ccccn4)cs3)nc12,inactive: 88%
20,Cc1cc(C)cc(N=Cc2[nH]c3ccc(Br)c(Cl)c3c2O)c1,inconclusive: 171%
21,CC(C)c1c(Cl)c(O)c(-c2ccccc2)c(=O)n1-c1ccc(F)cc1,inactive: 100%
22,Cc1ccc(C(=O)N2CCCC(c3ccc(Cl)cc3)=N2)cc1,inactive: 101%
23,O=C1OC(/C(=C\Nc2cc(Cl)ccc2O)[N+](=O)[O-])c2ccccc21 (configuration not stated),inconclusive: 95%

row,Structure (SMILES),GTP binding activity (percent of control)
1,C/C=C/c1ccc(OCC(=O)Nc2ccc(C(N)=O)cc2)c(OC)c1,inconclusive: 95%
2,CCCCN(C(=O)c1cccc2c(=O)c(C)c(-c3ccccc3)oc12)c1ccccc1,inactive: 103%
3,C=C[C@]1(C)C[C@H]1[C@H](NP(=O)(c1ccccc1)c1ccccc1)c1ccccc1,inactive: 100%
4,CCN(CC)CCNC(=O)C(=O)NCC1OCCN1S(=O)(=O)c1ccc2c(c1)OCCO2 (configuration not stated),inactive: 95%
5,Cc1cccc(C2=NNC(=O)C(c3ccc(Cl)cc3)C2)c1 (configuration not stated),inconclusive: 92%
6,Cc1[nH]n2c(=O)c3c(nc2c1-c1ccc(F)cc1)CCCC3,inactive: 92%
7,Cn1c(=O)c2ncn(CC(=O)N=Nc3c(O)[nH]c4ccccc34)c2n(C)c1=O,inconclusive: 91%
8,CCOC(=O)C1(Cc2ccc(OC)cc2)CCN(C(=O)c2cc3ccccc3[nH]2)CC1,inconclusive: 88%
9,COc1ccc(CNC2CCCCC2)cc1,inconclusive: 104%
10,CC(C)NC(=O)c1ccccc1NC(=O)Cc1ccc(Br)cc1,inactive: 105%
11,Cc1ccc(S(=O)(=O)N2CCC(C(=O)Nc3nnc(C45CC6CC(CC(C6)C4)C5)s3)CC2)cc1,inconclusive: 104%
12,COC(=O)C1=C(N)Oc2cc(C)n(Cc3cccnc3)c(=O)c2C1c1ccc(OC)c(OC)c1 (configuration not stated),inconclusive: 96%
13,O=C(CSc1ncnc2c1oc1ccccc12)Nc1ccc2c(c1)OCCO2,inconclusive: 95%
14,Cn1c(SCC(=O)N/N=C/c2ccc([N+](=O)[O-])s2)nnc1-c1ccc(Cl)cc1,inactive: 102%
15,CC(C)Cn1c(N)c(S(=O)(=O)c2cccs2)c2nc3ccccc3nc21,inactive: 99%
16,COc1ccc(OC)c(C2=Nn3c(nnc3-c3ccco3)SC2)c1,inconclusive: 95%
17,O=c1c2ccccc2nc2c3ccccc3c3nncn3n12,inconclusive: 86%
18,COc1ccc(NC(=O)c2cc3c(-c4ccc(OC)c(OC)c4)nn(C)c3s2)cc1OC,inconclusive: 88%
19,CCOC(=O)c1c(-c2cccs2)csc1NC(=O)c1ccncc1,inconclusive: 102%
20,O=C(Oc1ccc2c(c1)OCO2)c1ccc(Br)c(S(=O)(=O)N2CCOCC2)c1,inconclusive: 92%
21,Cc1ccc(N2CCN(C(=O)N3CCOCC3)CC2)c(C)c1,inconclusive: 92%
22,Nc1nc(SCc2ccc(Cl)c(Cl)c2)n[nH]1,inconclusive: 98%
23,COc1ccccc1/C=C/C(=O)NNC(=O)c1cccs1,inactive: 97%

row,Structure (SMILES),GTP binding activity (percent of control)
1,CCOc1ccccc1OCCCOc1ccc(C)cc1Cl,inconclusive: 91%
2,O=C(CCCSc1nc2ccccc2c(=O)[nH]1)c1ccc(F)cc1,inactive: 92%
3,O=C(CC1C(=O)NCCN1Cc1ccc(-c2ccccc2)cc1)NCc1ccncc1 (configuration not stated),inactive: 96%
4,CCOC(=O)c1c(-c2ccc(C)cc2)csc1NC(=O)/C(C#N)=C/c1ccc(O)c(OC)c1,inconclusive: 117%
5,COCCNC(=S)N/N=C(\C)c1cccc(OC)c1,inactive: 106%
6,O=C(/C=C/c1ccco1)Nc1ccc(-c2nc3ccccc3[nH]2)cc1,inconclusive: 175%
7,CC1CCN(S(=O)(=O)c2ccc(C(=O)NNC(=O)C3CC3)cc2)CC1,inactive: 93%
8,O=C(CSc1ncn[nH]1)N1CCOCC1,inactive: 95%
9,O=[N+]([O-])c1cccc(Nc2nc(Cl)nc(Cl)n2)c1,inconclusive: 94%
10,CCOc1ccc(N2CC(C(=O)Nc3ccc4c(c3)OCO4)CC2=O)cc1 (configuration not stated),inconclusive: 94%
11,CC(C)C12CN3CC(C(C)C)(CN(C1)C3c1ccco1)C2=O (configuration not stated),inconclusive: 109%
12,O=C(c1cc[n+]([O-])cc1)N1CCc2c([nH]c3ccccc23)C1c1ccccc1Cl (configuration not stated),inconclusive: 95%
13,Cc1ccc(Oc2nc(-c3cccnc3)nc3ccccc23)c([N+](=O)[O-])n1,inconclusive: 96%
14,O=C(O)c1ccccc1C(=O)OCc1ccccc1,inconclusive: 132%
15,CC(C)CCNC(=O)CCCOc1cc(=O)n(C)c2ccccc12,inconclusive: 95%
16,COCCNC(=O)Cn1c(=O)n(Cc2ccco2)c(=O)c2ccccc21,inconclusive: 104%
17,Nc1nc(SCC(=O)c2cc(F)ccc2F)n[nH]1,inconclusive: 96%
18,O=C(CCn1nc(-c2ccc(Cl)cc2)ccc1=O)N1CCN(c2ccccn2)CC1,inconclusive: 96%
19,COc1ccc(Nc2nnc(SCC(=O)N3CC(=O)Nc4ccccc43)s2)cc1,inconclusive: 98%
20,COc1cccc(-n2nnnc2S(C)(=O)=O)c1,inactive: 92%
21,Nc1nonc1C(=O)NCCN=Cc1cc(Cc2ccccc2)cc(Br)c1O,inactive: 114%
22,CCOC(=O)N1CCN(C(=O)CSCc2ccccc2Cl)CC1,inactive: 98%
23,CCc1c(C)sc(NC(=O)CC#N)c1C#N,inconclusive: 86%

# Structural class, the entries above containing an NH in an aromatic ring.
row,Structure (SMILES),GTP binding activity (percent of control)
14,Cc1nc2c(-c3ccc(Cl)cc3)c(C)[nH]n2c(=O)c1Cc1ccccc1,inconclusive: 88%
21,O=C(O)c1ccc(/C=C/c2nc3sc4c(c3c(=O)[nH]2)CCC4)cc1,inconclusive: 93%
10,CNC(=O)CSc1nc2c([nH]c3ccccc32)c(=O)n1CCOC,inconclusive: 108%
18,COC(=O)c1ccc(COc2ccc(/C=C(\C#N)c3nc4ccccc4[nH]3)cc2OC)o1,inactive: 99%
20,Cc1cc(C)cc(N=Cc2[nH]c3ccc(Br)c(Cl)c3c2O)c1,inconclusive: 171%
6,Cc1[nH]n2c(=O)c3c(nc2c1-c1ccc(F)cc1)CCCC3,inactive: 92%
7,Cn1c(=O)c2ncn(CC(=O)N=Nc3c(O)[nH]c4ccccc34)c2n(C)c1=O,inconclusive: 91%
8,CCOC(=O)C1(Cc2ccc(OC)cc2)CCN(C(=O)c2cc3ccccc3[nH]2)CC1,inconclusive: 88%
22,Nc1nc(SCc2ccc(Cl)c(Cl)c2)n[nH]1,inconclusive: 98%
2,O=C(CCCSc1nc2ccccc2c(=O)[nH]1)c1ccc(F)cc1,inactive: 92%
6,O=C(/C=C/c1ccco1)Nc1ccc(-c2nc3ccccc3[nH]2)cc1,inconclusive: 175%
8,O=C(CSc1ncn[nH]1)N1CCOCC1,inactive: 95%
12,O=C(c1cc[n+]([O-])cc1)N1CCc2c([nH]c3ccccc23)C1c1ccccc1Cl (configuration not stated),inconclusive: 95%
17,Nc1nc(SCC(=O)c2cc(F)ccc2F)n[nH]1,inconclusive: 96%

# Copied from the results shown (2 entries):
row,Structure (SMILES),GTP binding activity (percent of control)
12,O=C(c1cc[n+]([O-])cc1)N1CCc2c([nH]c3ccccc23)C1c1ccccc1Cl (configuration not stated),inconclusive: 95%
13,Cc1ccc(Oc2nc(-c3cccnc3)nc3ccccc23)c([N+](=O)[O-])n1,inconclusive: 96%
